Test results published in PMC4205851, “Protein-tyrosine phosphorylation interaction network in Bacillus subtilis reveals new substrates, kinase activators and kinase cross-talk” (Frontiers in Microbiology, 2014).

Key:
[1] = target: T1, SpoIIE (B. subtilis 168) (UniProt P37475); assay: two-hybrid; Gal4 system in yeast PJ69-4A/PJ69-4α: BD baits (pGBDU-C1) mated with the AD-fusion B. subtilis genomic library (pGAD) or with AD fusions; growth on SC-LUH with 0.5 mM 3-aminotriazole and on SC-LUA at 30°C; hits retested in binary specificity matings
T1 sequence: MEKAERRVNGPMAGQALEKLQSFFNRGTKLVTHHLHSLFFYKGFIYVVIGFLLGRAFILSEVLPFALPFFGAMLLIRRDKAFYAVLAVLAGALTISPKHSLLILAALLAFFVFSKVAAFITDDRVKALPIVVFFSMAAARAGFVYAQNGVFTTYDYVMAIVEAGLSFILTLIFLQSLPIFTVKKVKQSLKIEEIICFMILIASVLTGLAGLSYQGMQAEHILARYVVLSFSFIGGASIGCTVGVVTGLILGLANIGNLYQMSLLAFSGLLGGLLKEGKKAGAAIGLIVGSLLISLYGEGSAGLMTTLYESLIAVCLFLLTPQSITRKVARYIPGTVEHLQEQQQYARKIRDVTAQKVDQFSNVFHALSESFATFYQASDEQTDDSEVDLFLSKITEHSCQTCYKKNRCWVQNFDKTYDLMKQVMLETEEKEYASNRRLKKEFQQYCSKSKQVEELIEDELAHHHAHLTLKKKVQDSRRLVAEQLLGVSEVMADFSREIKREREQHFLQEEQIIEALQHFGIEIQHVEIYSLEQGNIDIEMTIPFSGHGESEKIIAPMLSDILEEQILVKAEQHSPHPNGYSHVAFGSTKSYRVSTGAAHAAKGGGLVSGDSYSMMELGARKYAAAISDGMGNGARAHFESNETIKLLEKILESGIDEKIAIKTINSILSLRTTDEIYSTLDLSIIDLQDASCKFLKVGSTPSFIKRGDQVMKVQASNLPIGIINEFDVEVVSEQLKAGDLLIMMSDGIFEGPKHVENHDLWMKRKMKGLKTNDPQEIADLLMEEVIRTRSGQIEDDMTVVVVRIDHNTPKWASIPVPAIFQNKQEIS

[2] = target: T2, YabT (B. subtilis 168) (UniProt P37562); assay: as above
T2 sequence: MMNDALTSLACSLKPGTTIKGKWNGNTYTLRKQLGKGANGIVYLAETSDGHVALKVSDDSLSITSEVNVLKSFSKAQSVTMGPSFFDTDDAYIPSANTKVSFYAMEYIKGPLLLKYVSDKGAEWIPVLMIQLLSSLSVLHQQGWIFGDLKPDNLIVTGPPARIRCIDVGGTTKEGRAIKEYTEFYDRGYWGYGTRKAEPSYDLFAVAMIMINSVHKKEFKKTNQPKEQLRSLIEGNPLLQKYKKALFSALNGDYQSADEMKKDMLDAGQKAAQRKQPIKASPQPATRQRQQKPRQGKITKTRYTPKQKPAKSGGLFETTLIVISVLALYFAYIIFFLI

[3] = target: PtkA (B. subtilis 168); assay: as above
[4] = target: TkmA (B. subtilis 168); assay: as above
[5] = target: TkmB (B. subtilis 168); assay: as above
[6] = target: PtkA (purified) (B. subtilis 168); assay: far-Western; PtkA, MinC and TkmA separated by 12% SDS-PAGE, transferred to nitrocellulose and renatured; probed with Strep-tagged MinD labelled with Strep-Tactin-HRP in TBS-T (50 mM Tris pH 7.5, 150 mM NaCl, 0.05% Tween 20) with 1% BSA; AEC staining; both purified
[7] = target: TkmA (purified) (B. subtilis 168); assay: as above
[8] = target: PtkB (B. subtilis 168); assay: two-hybrid; Gal4 system in yeast PJ69-4A/PJ69-4α: BD baits (pGBDU-C1) mated with the AD-fusion B. subtilis genomic library (pGAD) or with AD fusions; growth on SC-LUH with 0.5 mM 3-aminotriazole and on SC-LUA at 30°C; hits retested in binary specificity matings

Molecule: PtkB (B. subtilis 168) (enzyme)
binding [2]: binds

Molecule: AD-RacA fusion (aa 81-194/194) (B. subtilis) (domain or fragment)
binding [1]: binds
binding [2]: binds

B1: C-terminal domain of MinD II (aa89-268) (domain or fragment, UniProt Q01464 89-268)
chain: AAQTSDKTAVAPEQIKNMVQELKQEFDYVIIDCPAGIEQGYKNAVSGADKAIVVTTPEISAVRDADRIIGLLEQEENIEPPRLVVNRIRNHLMKNGDTMDIDEIVQHLSIDLLGIVADDDEVIKASNHGEPIAMDPKNRASIAYRNIARRILGESVPLQVLEEQNKGMMAKIKSFFGVRS
binding [3]: binds

B2: C-terminal domain of MinD I (aa135-268) (domain or fragment, UniProt Q01464 135-268)
chain: GADKAIVVTTPEISAVRDADRIIGLLEQEENIEPPRLVVNRIRNHLMKNGDTMDIDEIVQHLSIDLLGIVADDDEVIKASNHGEPIAMDPKNRASIAYRNIARRILGESVPLQVLEEQNKGMMAKIKSFFGVRS
binding [3]: binds

B3: PtpZ (enzyme, UniProt P96717 1-254)
chain: MIDIHCHILPAMDDGAGDSADSIEMARAAVRQGIRTIIATPHHNNGVYKNEPAAVREAADQLNKRLIKEDIPLHVLPGQEIRIYGEVEQDLAKRQLLSLNDTKYILIEFPFDHVPRYAEQLFYDLQLKGYIPVIAHPERNREIRENPSLLYHLVEKGAASQITSGSLAGIFGKQLKAFSLRLVEANLIHFVASDAHNVKTRNFHTQEALYVLEKEFGSELPYMLTENAELLLRNQTIFRQPPQPVKRRKLFGFF
binding [4]: binds

B5: RsbT (enzyme, UniProt P42411 1-133)
chain: MNDQSCVRIMTEWDIVAARQLGRNVAKELGFGTVDQARITTAISELARNIYLYAGKGQIGIEQVADRGKKGLKIIAEDQGPGIPDIRKVMEDGFSTSGGLGAGLPGVKRLMDEFSLNSVAGEGTEIQAIKWLR
binding [3]: binds

B8: MinD (protein, UniProt Q01464 1-268)
chain: MGEAIVITSGKGGVGKTTTSANLGTALAILGKRVCLVDTDIGLRNLDVVMGLENRIIYDLVDVVEGRCKMHQALVKDKRFDDLLYLMPAAQTSDKTAVAPEQIKNMVQELKQEFDYVIIDCPAGIEQGYKNAVSGADKAIVVTTPEISAVRDADRIIGLLEQEENIEPPRLVVNRIRNHLMKNGDTMDIDEIVQHLSIDLLGIVADDDEVIKASNHGEPIAMDPKNRASIAYRNIARRILGESVPLQVLEEQNKGMMAKIKSFFGVRS
binding [3]: binds
binding [8]: binds
binding [4]: no binding

More lines, now with the values ahead:

binding [1]: binds
binding [2]: binds
Molecule: YkcC (B. subtilis)

binding [1]: binds
binding [2]: binds
Molecule: XhlA (B. subtilis)

binding [1]: binds
binding [2]: binds
Molecule: SbcE (B. subtilis)

binding [5]: binds
B4: YvcJ (protein, UniProt O06973 1-295)
chain: MSVSESHDIQLVIITGMSGAGKTVAIQSFEDLGYFCVDNLPPSLLPKFLELMKESNSKMSKVALVMDLRGREFFDRLIEALDEMAENPWITPRILFLDAKDSILVTRYKETRRSHPLAATGLPLEGIALERELLEELKGRSQIIYDTSDMKPRDLREKIVKHFATNQGETFTVNVMSFGFKYGIPIDADLVFDVRFLPNPYYIESMRPLTGKDKEVSSYVMKWNETQKFNEKLIDLLSFMLPSYKREGKSQVVIAIGCTGGQHRSVTLAENLADYFKKDYYTHVTHRDIEKRSRK

binding [4]: binds
B6: YabT (enzyme, UniProt P37562 1-338)
chain: MMNDALTSLACSLKPGTTIKGKWNGNTYTLRKQLGKGANGIVYLAETSDGHVALKVSDDSLSITSEVNVLKSFSKAQSVTMGPSFFDTDDAYIPSANTKVSFYAMEYIKGPLLLKYVSDKGAEWIPVLMIQLLSSLSVLHQQGWIFGDLKPDNLIVTGPPARIRCIDVGGTTKEGRAIKEYTEFYDRGYWGYGTRKAEPSYDLFAVAMIMINSVHKKEFKKTNQPKEQLRSLIEGNPLLQKYKKALFSALNGDYQSADEMKKDMLDAGQKAAQRKQPIKASPQPATRQRQQKPRQGKITKTRYTPKQKPAKSGGLFETTLIVISVLALYFAYIIFFLI

binding [6]: binds
binding [7]: no binding
B7: Strep-tagged MinD (protein, UniProt Q01464 1-268)
chain: MGEAIVITSGKGGVGKTTTSANLGTALAILGKRVCLVDTDIGLRNLDVVMGLENRIIYDLVDVVEGRCKMHQALVKDKRFDDLLYLMPAAQTSDKTAVAPEQIKNMVQELKQEFDYVIIDCPAGIEQGYKNAVSGADKAIVVTTPEISAVRDADRIIGLLEQEENIEPPRLVVNRIRNHLMKNGDTMDIDEIVQHLSIDLLGIVADDDEVIKASNHGEPIAMDPKNRASIAYRNIARRILGESVPLQVLEEQNKGMMAKIKSFFGVRS

binding [3]: binds
B9: SalA (protein, UniProt P50863 1-352)
chain: MIREDEVRKLVGEMREPFLQRPLGELDAVKEIKIKPEKRHISVKVALAKTGTAEQMQIQQEIVNVLKGAGAETVGLRFEELPEETVAKFRAPSAEKKTLLNMDNPPVFLAVASGKGGVGKSTVSVNLAISLARLGKKVGLIDADIYGFSVPDMMGITVRPTIEGEKLLPVERFGVKVMSMGFFVEENAPVVWRGPMLGKMLNNFFHEVEWGEVDYIVLDLPPGTGDVALDVHTMLPSCKEIIVSTPHPTAAFVAARAGSMAIKTDHEVVGVIENMAYYESAKTGEREYVFGKGGGDKLAEELNVPLLGRIPLKQPDWDKDQFAPSVYDENHPIGEIYQDIAKKIDAKMSVQV

Results are given in words; binding and its absence hold for the method and conditions named. For part of these data: A result given as binding can be weak or reduced; the word gives no strength. For part of these data: Sequences can lack the tags named with a protein. Each block holds one molecule with its values, some of them ahead of it.
